Values of other authors as cited in patent US6858612B1, “Use of tetrahydropteridine derivatives as no synthase inhibitors” (Vasopharm Buitech GmbH, priority 1994, dated 2005).
Read-outs that look alike come from different tables or passages of the source. For at least one compound, name, drawing or mass did not settle the structure.

System: NO synthases
Conditions: literature reports (Kwon et al., Giovanelli et al., Overfeld et al.), concentration-dependent

C[C@H](O)[C@H](O)[C@H]1CNc2nc(N)[nH]c(=O)c2N1 [5,6,7,8-tetrahydrobiopterin]
effect on NO production: inhibitory effect on NO production
effect on NO production (listed as tetrahydrobiopterin): stimulates NO production
